Data reported in publication PMC12040169 (PLOS Biology, 2025).
This is one part of the list.

What follows are compounds tested on T1, CTL2-GFP (C. trachomatis L2/434/Bu, GFP-expressing). Conditions: bulk GFP, single well; 28.5 h, 10 µM; inhibitor.
T1 construct: L2/434/Bu, GFP-expressing
Design: species or system HeLa; Intracellular C. trachomatis growth in HeLa cells, bulk GFP fluorescence relative to DMSO

Compound | % of control remaining [%]
COCc1cccc(-c2nccnc2Oc2cccc(OC)c2)c1 [CBK106958] | 93.7504
CC(NC(=O)c1ccc(-n2ccnc2)c(-n2cccc2)c1)c1ccco1 (stereo not drawn) [CBK284808] | 109.704
CC(C)(C)OC(=O)N1CCC(C2OCc3cc(-c4ccc(S(C)(=O)=O)cn4)ccc3O2)CC1 (stereo not drawn) [CBK173326] | 93.1168
CN1C(=O)COc2ccccc2C/C=C/C[C@H]2NCCC[C@H]21 [CBK292156] | 128.599
CC(=O)NC(NC(=S)Nc1sc2c(c1C(N)=O)CCCC2)C(Cl)(Cl)Cl (stereo not drawn) [CBK261054] | 99.8994
CCCn1nc(C)c(-c2cncn2CCn2nc(C)c(C)c2C)c1C [CBK281444] | 119.578
CCc1nsc(N2CCC(Oc3cccnc3N(C)C)C2)n1 (stereo not drawn) [CBK304498] | 91.7839
COc1ccc(C(=O)N2CCC3(CCCN(C(=O)CCSC)C3)C2)cc1OC (stereo not drawn) [CBK131661] | 103.526
Cc1noc(C)c1C[S+]([O-])c1ccc(Br)cc1 (stereo not drawn) [CBK034195] | 147.032
CC(C)NC(=O)N[C@H]1CCN2C(=O)c3ccc(Cl)cc3NC(=O)[C@H]12 [CBK289343] | 122.598
Cc1nccn1CC1(O)CCN(Cc2ccc(F)c(F)c2)CC1 [CBK284955] | 86.8806
CC1CCCCN1CC(C)(C)NC(=O)c1cc(C2CC2)on1 (stereo not drawn) [CBK281676] | 130.678
Cc1nnc(CNC(=O)c2cc(-c3ccc(Cl)cc3)nc3ccccc23)o1 [CBK297717] | 118.046
CC(=O)Nc1nc(C(=O)N2CCOC(c3ccc(F)cc3)C2)cs1 (stereo not drawn) [CBK244238] | 96.9661
COc1ccc(-c2c[nH]c([C@@H]3COCCN3Cc3csnn3)n2)cc1 [CBK289297] | 145.816
Cc1cn(CC(=O)N2CCCC3(CCN(C(=O)c4cc(F)c(F)cc4F)C3)C2)c(=O)[nH]c1=O (stereo not drawn) [CBK131561] | 78.3681
COc1cccc(C(=O)Nc2ccc(NC(=O)C3CC=CCC3C(=O)O)cc2)c1 (stereo not drawn) [CBK266316] | 111.765
O=C(Nc1cc(N2CCCS2(=O)=O)ccc1Cl)c1cc[nH]n1 [CBK306249] | 189.49
O=C(Cn1cccc2cc(C3CCNCC3)nc1-2)N1CCCCCC1 [CBK284679] | 122.426
CCc1ccc(-n2cc(-c3ccccn3)nn2)cc1 [CBK113137] | 122.963
O=C(CSCc1ccc(Cl)cc1Cl)Nc1cccc(O)c1 [CBK131702] | 76.4423
O=S(=O)(Nc1cccc(Cl)c1Cl)c1cccc2nsnc12 [CBK067296] | 75.6241
Cc1ccc(S(=O)(=O)c2ccc(C)c(S(=O)(=O)NC3CCCCC3)c2)cc1S(=O)(=O)NC1CCCCC1 [CBK261653] | 100
COc1cc(OC)nc(Oc2ccccc2C(=O)O)n1 [CBK092218] | 120.984
Cc1nn(C)c(C)c1CN1CCN(C(=S)Nc2ccc(S(N)(=O)=O)cc2)CC1 [CBK267030] | 163.352
Cc1nn(CC(=O)NC(C)C)c(=O)c2cc3sccc3n12 [CBK284048] | 114.478

Quoted from the listing.
Entry of `CC(=O)Nc1nc(C(=O)N2CCOC(c3ccc(F)cc3)C2)cs1` (stereo not drawn) [CBK244238] under % of control remaining [%]: 96.9661
Entry of `CC(NC(=O)c1ccc(-n2ccnc2)c(-n2cccc2)c1)c1ccco1` (stereo not drawn) [CBK284808] under % of control remaining [%]: 109.704

(cont.)

Compound | % of control remaining [%]
CC1CN(C(=S)Nc2ccc(NC(=S)N3CC(C)OC(C)C3)cc2)CC(C)O1 (stereo not drawn) [CBK004991] | 150.846
COc1ccc(C(NC(=O)[C@H]2CCCN2C(=O)NCc2ccccc2C)c2ccccc2C)cn1 (stereo partly drawn) [CBK075051] | 98.8277
Cc1ccc(NC(=O)c2cnc3scc(C)n3c2=O)cc1C [CBK287461] | 111.705
O=C(c1nccs1)C1CCN(C(=O)Cc2ccc(Cl)cc2)CC1 [CBK284160] | 98.872
O=C(CCn1c(C(F)F)cc2cccnc21)N1CCCC(CO)C1 (stereo not drawn) [CBK284985] | 164.256
CC(C)(CN)CN(Cc1ccncc1)C(=O)Nc1ccc(C(C)(C)C)cc1 [CBK002459C] | 100
CCNC(=O)N(C)c1c(CC)nc2ccc(C(=O)N3CCN(C(C)=O)CC3)cn12 [CBK146362] | 103.229
O=C(CN1CCOCC1)Nc1sc2c(c1C(=O)Nc1ccc(Br)cc1)CCC2 [CBK265073] | 100
O=C(Nc1cccc(-c2nnn[nH]2)c1)c1ccc(Cl)c(Cl)c1 [CBK144713] | 117.722
Cc1noc([C@@H]2C[C@H](NC(=O)Nc3cccc(C#N)c3)CN2C)n1 [CBK288873] | 108.88
CC1(c2[nH]nc(N)c2Cc2c(Cl)cccc2Cl)CC1 [CBK115483T] | 97.0592
CC1(C)[C@H](Cc2cc(CO)on2)C[C@@H]1NC(=O)C1CCCCC1 [CBK289235] | 119.434
CC1CC(=O)Nc2ccccc2N1C(=O)Cn1c(=O)cnc2ccccc21 (stereo not drawn) [CBK297116] | 79.5709
O=C(CN1CCN(Cc2ccccc2)CC1)Nc1ccc(C(F)(F)F)cc1Cl [CBK074781] | 108.385
CCOCC1CCN(C(=O)c2ncsc2Nc2ccccc2)C1 (stereo not drawn) [CBK304204] | 116.821
CCCC(=O)N1CCC(c2nc3ccccc3cc2NC(C)=O)CC1 [CBK285258] | 136.853
COc1ccc(Nc2cc(-c3ccsc3)ncn2)cc1OC [CBK090820] | 188.476
Cc1cc(S(=O)(=O)N2CCCC2)ccc1OCC(=O)O [CBK268289] | 138.878
O=C(CCC(=O)c1ccc(F)cc1)Nc1cccnc1 [CBK266901] | 156.485
O=C(NCCN1CCC(O)(c2ccc(F)cc2)CC1)C1CC1 [CBK283164] | 129.13
COc1ccc(C(C)C)cc1-c1cc(Nc2cc(OC)c(OC)c(OC)c2)n2nccc2n1 [CBK037746] | 111.261
CCC1C(=O)N=C(SCC(=O)Nc2ncccn2)NC1=O (stereo not drawn) [CBK263920] | 100
O=C(NC(c1ccc(Cl)cc1)c1ccsc1)C1CCN(CCc2ccc(F)cc2)CC1 (stereo not drawn) [CBK147976] | 105.292
CC(C)[C@H](CO)Nc1nc(-c2ccc3c(c2)OCO3)cn2ccnc12 [CBK038071] | 132.766
CC[C@H]1CN(S(=O)(=O)c2c(C)noc2C)CC[C@H]1CC(=O)Nc1nccs1 [CBK288779] | 113.684
COc1ccccc1-c1ccc(C(=O)N(C)CCN(C)C)c(NCC2CC2)n1 [CBK106269] | 103.084

Molecules from the list above that have a COOH group, in the order listed:
Compound | % of control remaining [%]
COc1cccc(C(=O)Nc2ccc(NC(=O)C3CC=CCC3C(=O)O)cc2)c1 (stereo not drawn) [CBK266316] | 111.765
COc1cc(OC)nc(Oc2ccccc2C(=O)O)n1 [CBK092218] | 120.984
Cc1cc(S(=O)(=O)N2CCCC2)ccc1OCC(=O)O [CBK268289] | 138.878

Continuation.

Compound | % of control remaining [%]
Cc1ccc(CN(Cc2cnc(C)n2C)CC2CCCO2)o1 (stereo not drawn) [CBK283291] | 145.874
Cc1cc(C2CCCCCN2C(=O)c2ccc(F)cc2)on1 (stereo not drawn) [CBK285447] | 115.594
O=C(O)c1ccccc1-c1ccccc1C(=O)Nc1ccc(O)cc1 [CBK286602] | 146.872
COc1cc(NC(=O)NCCc2cccs2)cc(OC)c1OC [CBK043347] | 114.359
Cc1noc(C)c1S(=O)(=O)Nc1ccc2[nH]ncc2c1 [CBK062518] | 118.824
CC1CCCN(CC(=O)NCc2ccc(OCC(N)=O)cc2)CC1 (stereo not drawn) [CBK305755] | 133.175
CC(C)OCC(O)Cn1c(N/N=C/c2ccccc2O)nc2c1c(=O)[nH]c(=O)n2C (stereo not drawn) [CBK139853] | 100.844
O=C1NC2(CCc3ccccc31)CCN(C(=O)c1ccccn1)C2 (stereo not drawn) [CBK283337] | 98.4888
Cc1c(C#N)c2ccc(O)c(CN(C)C)c2n1-c1ccccc1 [CBK094247C] | 87.3151
Cc1cc(NC(=O)CN(C)Cc2cnn(-c3ccccc3)c2)on1 [CBK305622] | 118.955
COCCN(Cc1cnn(C)c1)Cc1cc(O)c2cc(F)ccc2n1 [CBK307359] | 129.1
CCN1CCN(S(=O)(=O)c2cccc([N+](=O)[O-])c2)CC1 [CBK266675] | 143.718
COc1cncc(-c2cncc(N3CCN(CCN(C)C)CC3)n2)c1 [CBK065393] | 75.6627
CC1CCN(Cc2csc(NC(=O)CCn3c(-c4cccs4)n[nH]c3=S)n2)CC1 [CBK297892] | 97.726
Cc1c(Cl)cccc1N1CCN(S(=O)(=O)CC23CCC(CC2=O)C3(C)C)CC1 (stereo not drawn) [CBK269257] | 159.101
NS(=O)(=O)c1ccc(CCNC(=O)COc2ccc(Cl)cc2Cl)cc1 [CBK265694] | 108.804
Cc1ccn2c(F)c(C(=O)N3CCCCC3CN3CCOCC3)nc2c1 (stereo not drawn) [CBK307028] | 156.297
CS(=O)(=O)c1ccc(-c2ccc3c(c2)C(=O)NC(C2CCN(C(=O)OCc4ccccc4)CC2)O3)cc1 (stereo not drawn) [CBK156087] | 128.511
CCCn1ncc(C(=O)N2CCN(CC3CCCN(C)C3)CC2)c1C (stereo not drawn) [CBK307122] | 114.353
COC(=O)c1ccc(CN2CCN(CCN3C(=O)c4cccc5cccc(c45)C3=O)CC2)cc1 [CBK074518] | 126.742
O=C(O)C(Cc1c[nH]c2ccccc12)N1C(=O)C2C3c4ccccc4C(c4ccccc43)C2C1=O (stereo not drawn) [CBK265377] | 100
CN(C)C(=O)CC(O)c1cc2n(n1)CCN(Cc1cccs1)C2 (stereo not drawn) [CBK306620] | 95.8879
OC(c1ccncc1)C(O)c1ccncc1 (stereo not drawn) [CBK024254] | 103.465
Nc1ccc(-c2nc(NC(=O)c3cccs3)cnc2-c2ccc(F)cc2)cc1 [CBK037597] | 202.275
Cc1ccccc1Nc1nc(N)nc(CN(CCC#N)CC2CCC2)n1 [CBK305308] | 130.076
COc1ccc2sc(N(Cc3cccnc3)C(=O)C3COc4ccccc4O3)nc2c1 (stereo not drawn) [CBK294424] | 162.215
